In PubChem BioAssay (Tox21):
Where “and” joins values, the source holds several entries; their conditions need not be identical. Equal entries are not always repeated. The inconclusive results got no clear call from the source; some entries with a clear call stand among them for comparison. A call without a number means that no potency is given here. Potencies beside an inconclusive call are fits to weak or partial responses and may not hold up. Calls of active or inactive are those of the source. Calls come from the whole dose curve; as a rule, active = well fitted cell-killing curve with a large enough effect in the repeat runs; inconclusive = weak or mixed curves, or effect the other way; inactive = flat fitted curve, though single readings scatter.

Experiment: cAMP Responsive Elements (CRE) small molecule agonists, cell-based qHTS assay: qHTS cell viability counter screen (AID 2060914); note: nearly all actives have a fitted effect of over 50% in size
Conditions: CRE-bla HEK293T viability, CellTiter-Glo luminescence, 5 h; series mostly up to 92.4 µM
How it was run: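 In the same wells as the reporter read, viability of CRE-bla HEK 293T cells was quantified by CellTiter-Glo luminescence after a 3 h compound exposure.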
Potency is the fitted concentration of half-maximal effect.

| Compound | Potency |
| --- | --- |
| O=C1Nc2ccccc2C1=O | inactive |
| Nc1ccc(N)c2ccccc12 | inconclusive: 68.5 µM [cytotoxic, single point] |
| CCCCCCCCOc1ccc(C(=O)c2ccccc2)c(O)c1 | inconclusive: 2.46 µM [cytotoxic, single point] and inconclusive: 33.5 µM [cytotoxic, partial curve, poor fit] |
| C=Cc1ccc(S(=O)(=O)O)cc1 | inconclusive: 1.37 µM [cytotoxic, single point] |
| [O]=[Zr] | inactive |
| COc1cccc2c1C(=O)c1c(O)c3c(c(O)c1C2=O)C[C@@](O)(C(=O)CO)C[C@@H]3O[C@H]1C[C@H](N)[C@H](O[C@@H]2CCCCO2)[C@H](C)O1 | inconclusive: 21.1 µM [rising, partial curve, poor fit] |
| c1ccc2ncccc2c1 | inconclusive: 19.3 µM [rising, partial curve, poor fit] |
| Clc1ccc(Nc2nnc(Cc3ccncc3)c3ccccc23)cc1 | inactive |
| CCOC(=O)c1ccc(C#Cc2ccc3c(c2)C(C)(C)CCS3)nc1 | inactive |
| O=C(Cl)c1cc(Cl)cc(Cl)c1 | inactive |
| C=C(C)C(=O)OCCCCCCCCCCOC(=O)C(=C)C | inactive |
| CCCCCCCCCCCCO | inactive |
| COc1ccnc(CS(=O)c2nc3ccc(OC(F)F)cc3[nH]2)c1OC (centres undefined) | inactive |
| CC(=O)OCCC(C)CC(C)(C)C (centres undefined) | inactive |
| CCc1c(C(=O)NN2CCCCC2)nn(-c2ccc(Cl)cc2Cl)c1-c1ccc(Br)cc1 | inconclusive: 0.217 µM [cytotoxic, single point] |
| CCC(C)COC(=O)CC(C)C (centres undefined) | inactive |
| C=C(C)C(=O)OCCOCC | inconclusive: 2.74 µM [cytotoxic, single point] |
| C[C@]12C=CC(=O)C=C1CC[C@@H]1[C@@H]2[C@@H](O)C[C@@]2(C)[C@H]1CC[C@]2(O)C(=O)CO | inconclusive: 0.545 µM [cytotoxic, single point] |
| CCC(C)CCCC(C)(C)O (centres undefined) | inconclusive: 2.43 µM [cytotoxic, single point] |
| CC(C)(C)NC[C@H](O)COc1cccc2c1CCCC2=O | inconclusive: 0.266 µM [cytotoxic, partial curve, poor fit] |

Copied from the list:
`CCC(C)COC(=O)CC(C)C` (centres undefined) | Potency: inactive
`CCc1c(C(=O)NN2CCCCC2)nn(-c2ccc(Cl)cc2Cl)c1-c1ccc(Br)cc1` | Potency: inconclusive: 0.217 µM [cytotoxic, single point]

(cont.)

| Compound | Potency |
| --- | --- |
| Oc1ccc(OCc2ccccc2)cc1 | inconclusive: 0.298 µM [cytotoxic, single point] |
| Cc1cc2c(cc1C(F)(F)F)N(C(=O)Nc1ccc(Oc3cccnc3C)nc1)CC2 | inactive |
| CCCCN(CCO)CCO | inconclusive: 54.3 µM [rising, single point] |
| OCCN(CCO)CCN(CCO)CCO | inactive |
| CCCCC(CC)COC(=O)c1ccc(O)cc1 (centres undefined) | inconclusive: 54.5 µM [cytotoxic, partial curve] |
| N#CCCOCCC#N | inactive |
| CCCCOCCOC(=O)COc1nc(Cl)c(Cl)cc1Cl | inactive |
| C=C(C)C(=O)OCCOc1ccccc1 | inactive |
| CCC[Si](OC)(OC)OC | inactive |
| CC(C)(c1ccc(Oc2ccc3c(c2)C(=O)OC3=O)cc1)c1ccc(Oc2ccc3c(c2)C(=O)OC3=O)cc1 | inactive |
| CN1CCC[C@@H]1c1cccnc1 | inactive |
| CCC(=O)c1ccc2c(c1)N(CCCN(C)C)c1ccccc1S2 | inactive |
| CC1CCC(C(C)CS)CC1S (centres undefined) | inactive |
| NCCNc1cccc2ccccc12 | inconclusive: 0.298 µM [cytotoxic, single point] |
| Brc1c(NC2=NCCN2)ccc2nccnc12 | inconclusive: 2.98 µM [cytotoxic, single point] |
| OC[C@H]1O[C@@H](OCCc2ccc(O)cc2)[C@H](O)[C@@H](O)[C@@H]1O | inactive |
| C[N+](C)(C)CCOC(=O)CCC(=O)OCC[N+](C)(C)C | inactive |
| IC(I)I | inconclusive: 27.3 µM [cytotoxic, single point] |
| Cc1cc(NC(=O)C(=O)O)cc(C)c1Oc1ccc(O)c2c1CCC2 | inconclusive: 9.69 µM [cytotoxic, single point] |
